In patent publication US20030125234A1, “Alteration of protein stability” (priority 2001, published 2003):
At least one structure is not confirmed: it was looked up by name or label, or the drawing left a doubt.

Sequences of proteins named here, by UniProt entry; tags and fusion partners are left off. Residues count along the entry.
UniProt P01317, 25-54 limits assumed: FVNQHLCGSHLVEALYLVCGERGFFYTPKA
UniProt P01317, 85-105 limits assumed: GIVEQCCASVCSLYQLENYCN
UniProt P00698, 19-147: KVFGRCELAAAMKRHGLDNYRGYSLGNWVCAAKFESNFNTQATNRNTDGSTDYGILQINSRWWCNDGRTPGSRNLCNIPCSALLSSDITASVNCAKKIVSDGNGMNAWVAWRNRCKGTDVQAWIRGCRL
UniProt P05230, whole entry: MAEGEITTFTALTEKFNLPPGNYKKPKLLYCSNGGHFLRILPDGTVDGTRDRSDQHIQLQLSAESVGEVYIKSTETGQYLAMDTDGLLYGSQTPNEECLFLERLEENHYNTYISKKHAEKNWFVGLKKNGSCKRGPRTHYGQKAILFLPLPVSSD
UniProt P02788, 20-710: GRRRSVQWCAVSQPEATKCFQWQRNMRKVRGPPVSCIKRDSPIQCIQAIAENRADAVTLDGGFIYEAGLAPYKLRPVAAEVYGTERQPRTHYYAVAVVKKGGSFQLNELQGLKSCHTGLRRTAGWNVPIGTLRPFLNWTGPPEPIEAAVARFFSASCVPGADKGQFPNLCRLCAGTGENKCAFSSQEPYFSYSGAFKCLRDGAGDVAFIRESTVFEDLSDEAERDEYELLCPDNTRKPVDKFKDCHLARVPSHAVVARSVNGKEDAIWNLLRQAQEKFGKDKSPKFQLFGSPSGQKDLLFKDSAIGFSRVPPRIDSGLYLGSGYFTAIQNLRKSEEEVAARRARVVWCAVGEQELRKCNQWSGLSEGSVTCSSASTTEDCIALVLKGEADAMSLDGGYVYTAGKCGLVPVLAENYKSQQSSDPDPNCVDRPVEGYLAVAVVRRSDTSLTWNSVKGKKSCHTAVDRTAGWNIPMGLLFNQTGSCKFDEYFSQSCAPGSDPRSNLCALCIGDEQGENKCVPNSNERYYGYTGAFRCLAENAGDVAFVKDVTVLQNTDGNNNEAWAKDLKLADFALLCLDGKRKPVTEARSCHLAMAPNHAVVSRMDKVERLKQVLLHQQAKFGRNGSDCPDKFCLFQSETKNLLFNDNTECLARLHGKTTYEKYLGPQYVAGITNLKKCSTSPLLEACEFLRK

Legend:
Type in all cases: biochemical
Bovine insulin = biological target: T1, Bovine insulin (Bos taurus, UniProt P01317); assay: Insulin aggregation (turbidity at 360 nm) induced by DTT; conditions: Insulin 0.25 mg/mL, 25° C., compound 100×, standard deviation in parenthesis
T1 construct: purchased Sigma, St. Louis, Mo., USA
Protocol: (§1) Bovine insulin [Sigma, St. Louis, Mo., USA] was dissolved in phosphate saline (PBS) (50 mM sodium biphosphate, 100 mM sodium chloride), pH 7.0, bovine alpha-lactalbumin [Sigma] in 50 mM sodium phosphate, 100 mM sodium chloride and 2 mM EDTA, pH 6.2, chicken egg white lysozyme [Sigma] in 100 mM Tris, 1 mM EDTA, pH 8.2, human acidic fibroblast growth factor (FGF-1) in 6.2 mM sodium biphosphate, 120 mM sodium chloride, pH 7.2, porcine somatotropin (pST) [provided by Pfizer, Inc., Groton, Conn., USA] in 10 mM phosphate, pH 6. […]
(§2) Protein aggregation was monitored for 1 hour at 360 nm using an HP8453 UV-visible spectrophotometer system [Hewlett Packard, Germany]. […] Insulin (0.25 mg/mL (4.39E-5 M)) aggregation was monitored at 25° C. after addition of potential inhibitors and 20 μL of 1 M DTT (1.27E-4 M). Alpha-lactabumin (0.4 mg/mL (2.82E-5 M)) aggregation was monitored at 37° C. in the presence of 20 μL of 1 M DTT (1.27E-4 M). Lysozyme (0.4 mg/mL (2.86E-5 M)) aggregation was monitored at 25° C. in the presence of 20 μL of 1 M DTT (1.27E-4 M). FGF-1 (50 μg/mL (3.12E-6 M)) aggregation was monitored at 50° C. Porcine somatotropin (1.27 mg/mL (5.76E-5 M)) aggregation was monitored at 60° C. in the presence of PEG 8000 (20 mg/mL) which was included to enhance the protein association process through a simple exclusion volume effect. […]

[1] = biological target: T2, chicken egg white lysozyme (Gallus gallus, UniProt P00698); assay: Lysozyme aggregation (turbidity at 360 nm) induced by DTT
T2 construct: chicken egg white lysozyme [Sigma]; purchased Sigma; host or cells: egg white
Protocol: as §1, §2

bovine alpha-lactalbumin = biological target: T3, bovine alpha-lactalbumin (Bos taurus, UniProt P00711); assay: Alpha-lactalbumin aggregation (turbidity at 360 nm) induced by DTT; conditions: α Lactalbumin 0.4 mg/mL, 37° C., compound 1,000×, standard deviation in parenthesis
T3 construct: purchased Sigma
T3 sequence (P00711 20-142): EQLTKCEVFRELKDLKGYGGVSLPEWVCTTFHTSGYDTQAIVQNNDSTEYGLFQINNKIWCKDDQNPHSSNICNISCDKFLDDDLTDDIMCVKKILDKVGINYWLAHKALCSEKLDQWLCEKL
Protocol: as §1, §2

[2] = biological target: human acidic fibroblast growth factor (FGF-1) (Homo sapiens, UniProt P05230); assay: FGF-1 thermal aggregation (turbidity at 360 nm); conditions: FGF-1 50 μg/mL, 50° C., standard deviation in parenthesis
Protocol: as §1, §2

[3] = biological target: T4, human apolactoferrin (HLF) (Homo sapiens, UniProt P02788); assay: HLF aggregation (turbidity at 360 nm) induced by DTT; conditions: HLF 0.4 mg/mL, 43° C., second HLF column, head 10,000×, standard deviation in parenthesis
T4 construct: purchased Sigma
Protocol: as §1, §2

[4] = biological target: T5, porcine heart citrate synthase (CS) (Sus scrofa, UniProt P00889); assay: Citrate synthase thermal aggregation (turbidity at 360 nm); conditions: CS 96 μg/mL, 45° C., standard deviation in parenthesis
T5 construct: porcine heart citrate synthase (CS); from tissue; host or cells: porcine heart
T5 sequence (P00889 28-464): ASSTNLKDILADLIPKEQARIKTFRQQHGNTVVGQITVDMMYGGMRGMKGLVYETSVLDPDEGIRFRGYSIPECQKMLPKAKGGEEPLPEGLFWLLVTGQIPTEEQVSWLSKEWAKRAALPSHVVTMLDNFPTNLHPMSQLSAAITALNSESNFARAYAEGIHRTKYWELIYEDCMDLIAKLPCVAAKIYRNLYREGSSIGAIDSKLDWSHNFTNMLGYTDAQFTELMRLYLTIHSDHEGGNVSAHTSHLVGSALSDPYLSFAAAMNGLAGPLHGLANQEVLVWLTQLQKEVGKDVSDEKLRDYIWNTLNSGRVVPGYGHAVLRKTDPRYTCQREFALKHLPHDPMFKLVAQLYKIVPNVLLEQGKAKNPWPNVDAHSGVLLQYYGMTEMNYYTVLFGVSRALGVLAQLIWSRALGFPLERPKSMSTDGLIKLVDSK
Protocol: as §1, §2

[5] = biological target: T6, yeast alcohol dehydrogenase (ADH) (Saccharomyces cerevisiae, UniProt P00330); assay: ADH oxidation-induced aggregation (turbidity at 360 nm), Cu(OP)2; conditions: ADH 1 mg/mL, 37° C., compound 10,000X molar excess, Infinite = complete inhibition of aggregation over one hour
T6 construct: purchased Sigma
T6 sequence (P00330 2-348 limits assumed): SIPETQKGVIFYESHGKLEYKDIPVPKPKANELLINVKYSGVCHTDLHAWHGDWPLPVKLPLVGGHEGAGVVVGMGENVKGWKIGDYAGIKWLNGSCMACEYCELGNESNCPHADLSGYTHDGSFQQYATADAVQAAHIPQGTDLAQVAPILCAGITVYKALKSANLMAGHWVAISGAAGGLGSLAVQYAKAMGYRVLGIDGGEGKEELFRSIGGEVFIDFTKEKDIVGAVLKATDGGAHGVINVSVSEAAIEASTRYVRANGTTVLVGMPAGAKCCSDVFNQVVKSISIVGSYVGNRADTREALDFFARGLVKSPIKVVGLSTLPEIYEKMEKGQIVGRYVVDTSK
Protocol: as §1, §2

NN [hydrazine] was tested, and the inhibition index (Bovine insulin) was 0.9 (0.4), the “inhibition of lysozyme aggregation, in words” value [1] was “strongly inhibited” and the inhibition index ([1]; Lysozyme 0.4 mg/mL, 25° C., DTT, compound 1,000×, standard deviation in parenthesis) was 12.2 (6.0). For the same molecule, the inhibition index (bovine alpha-lactalbumin) was 0.5 (0.5), the inhibition index ([2]; compound 1,000×) was 1.6 (0.6) and the inhibition index ([2]; compound 10,000×) was 7.0 (1.2). The inhibition index [3] was 16.0 (6.2), the inhibition index ([4]; compound 10,000X) was 0.9 (0.2) and the inhibition index ([4]; compound 50,000X) was 6.8. For the same molecule, the inhibition index [5] was 0.3 (0.1).
